This is one part of the list. Further columns of the screen follow, without active or inactive calls. Compounds called inactive in the main read-out are mostly missing here. Words in brackets tell the shape of the fitted curve; partial curves, single points and poor fits give uncertain potencies.
Assay: qHTS Assay for Lipid Storage Modulators in Drosophila S3 Cells;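 for cell number change: cells counted by Cell Tracker Red CMTPX staining in the red channel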
Conditions: BODIPY lipid droplet fluorescence, 18-24 h; for cell number change: measured here: cell count max response, cells fed with added oleic acid
Outline: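 Laser-scanning cytometry quantifies lipid droplet accumulation (500–530 nm total intensity; droplet/cell object ratio) in oleic acid-fed (400 uM added) Drosophila S3 cells treated with a concentration series. 20 uM Triacsin C defined 100% inhibition.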

[1] = measured here: lipid fluorescence (Fed channel) AC50, cells fed with added oleic acid
[2] = measured here: cell number channel AC50, cells fed with added oleic acid

Structure (SMILES)	cell number change	AC50 [1]	AC50 [2]
CN(C)c1ccc(CN(C)C2CCCCC2)cc1	-1.45%		
CC1CN(C(=O)/C=C/c2ccc([N+](=O)[O-])s2)CC(C)O1 (stereo unspecified)	-29.6%		
O=C1C=C(O)CC(c2cccs2)C1 (stereo unspecified)		1.84 µM [rising, partial curve, poor fit]	
O=C(O)/C(=C\c1cccs1)c1ccccc1	7.81%	11.6 µM [rising, partial curve]	
Cc1c(C(=O)N/N=C/c2ccc(O)c(Br)c2)sc(N)c1C#N	-10.4%	6.51 µM [falling, single point]	6.51 µM [falling, single point]
COc1ccc(-c2csc(Nc3ncccc3C)n2)cc1OC	5.09%	0.13 µM [rising, full curve, poor fit]	
O=S(=O)(c1ccc(N2CCN(S(=O)(=O)c3ccccc3)CC2)nc1)N1CCCC1		5.17 µM [falling, single point]	
O=C(c1ccc(F)cc1F)N(Cc1ccccn1)Cc1ccco1	41.9%	3.66 µM [rising, partial curve]	18.4 µM [rising, single point]
O=C(NCc1ccccc1)C(=O)Nc1nccs1	35%	0.731 µM [falling, single point]	
O=C(CCC1CCCC1)NNC(=O)c1ccc(F)cc1	-8.45%	23.1 µM [rising, single point]	
Cc1ccc(-n2nnnc2SCC(=O)NCC2(N3CCCCC3)CCCCC2)c(C)c1		14.6 µM [falling, partial curve, poor fit]	
C=CCN(CC=C)C(=O)Nc1ccc2nc(C)sc2c1	24.2%		
O=C(CSc1nnc(-c2cccnc2)n1Cc1ccco1)Nc1cccc(O)c1	10.8%		
Cc1ccc(C#N)c(SCc2nnc(-c3ccc(Cl)cc3)o2)n1	12.5%	11.6 µM [rising, partial curve]	
COc1ccc(C(=O)NCCc2ccc(S(N)(=O)=O)cc2)cc1OC	-25.1%	0.164 µM [falling, full curve]	
CCn1c(SCC(=O)Nc2ccc(C(=O)OC)cc2)nnc1-c1cccs1			2.59 µM [rising, partial curve]
COc1ccc(C(CC(=O)N2CCCCC2)NC(=O)C(F)(F)F)cc1 (stereo unspecified)	23.3%		
Cc1onc(-c2ccccc2Cl)c1C(=O)NCC1CCCO1 (stereo unspecified)	-16.9%		
CCOc1ccccc1OCCC(=O)OCC(=O)Nc1c(C)cc(C)cc1C	-9.01%	0.00517 µM [rising, full curve, poor fit]	
Cc1cccc(NS(=O)(=O)c2cc(Cl)ccc2Cl)n1	5.22%		
COc1ccc2c(c1)c1nc3n(c(=O)c1n2CC(=O)Nc1cc(C)[nH]n1)CCS3	-7.69%		
O=C1c2ccccc2C(=O)N1CCc1csc(-c2ccccc2)n1		0.411 µM [rising, single point]	

2 records picked at random from those above, as already listed:
Structure (SMILES)	cell number change	AC50 [1]	AC50 [2]
O=C(c1ccc(F)cc1F)N(Cc1ccccn1)Cc1ccco1	41.9%	3.66 µM [rising, partial curve]	18.4 µM [rising, single point]
O=C1C=C(O)CC(c2cccs2)C1 (stereo unspecified)		1.84 µM [rising, partial curve, poor fit]	

The list goes on.

Structure (SMILES)	cell number change	AC50 [1]	AC50 [2]
O=C(c1ccccn1)N(c1ccccc1)C1(C(=O)NC2CCCCC2)CCCCC1	-29.6%	29.1 µM [falling, partial curve, poor fit]	
Cc1cc(C)cc(C(=O)Nc2cccc(NC(=O)c3ccco3)c2)c1	25.2%	29.1 µM [falling, single point]	
CC(=O)NC(CCS(C)(=O)=O)C(=O)Nc1ccccc1 (stereo unspecified)	5.01%	23.1 µM [falling, single point]	
Cc1nn(-c2cccc(C(=O)O)c2)c(C)c1[N+](=O)[O-]	-7.51%	0.206 µM [falling, full curve, poor fit]	0.206 µM [falling, full curve, poor fit]
Cc1nc2sc(C(c3ccc(Cl)cc3)N3CC(C)OC(C)C3)c(O)n2n1 (stereo unspecified)	-37.7%	11.6 µM [falling, partial curve, poor fit]	11.6 µM [falling, partial curve, poor fit]
CCCCn1c(CCC(=O)O)nc2cc(S(=O)(=O)N(C)C)ccc21	-18.1%	0.651 µM [falling, full curve]	0.00461 µM [falling, full curve]
CSCCC(NC(=O)c1occc1C)C(=O)O (stereo unspecified)	-138%	23.1 µM [falling, partial curve]	25.9 µM [falling, partial curve]
CC(=O)c1cccc(NC(=O)Cc2coc3cc4c(cc23)CCC4)c1	2.41%	2.59 µM [rising, partial curve, poor fit]	
CCCCOCP(=O)(CC)COCCCC	5.4%		
O=C(Cn1c(C(=O)NCCCN2CCOCC2)cc2sccc21)c1ccccc1	-47.5%	7.31 µM [falling, partial curve]	6.51 µM [falling, full curve]
COc1cccc(-c2nnc(SCc3ccc(C#N)cc3)n2Cc2ccco2)c1	59.7%	5.17 µM [rising, single point]	5.8 µM [rising, partial curve]
COCCCn1c(=O)c2sccc2n2c(CCCC(=O)NCC3CCCO3)nnc12 (stereo unspecified)		29.1 µM [falling, partial curve]	
O=C(COC(=O)c1ccco1)NCc1ccccc1Cl	-37.7%	0.82 µM [falling, full curve]	2.06 µM [falling, full curve]
O=C(c1ccc2c(c1)OCCO2)N(c1ccccn1)C1CCCCC1	-12.8%		
O=C(Nc1ccc(C(F)(F)F)cc1)c1ccc2nc[nH]c2c1	13.1%	16.4 µM [rising, single point]	
COc1cc(/C=C2\C(=O)N(CCC#N)N=C2C)ccc1OCC(=O)Nc1ccccc1	-23.6%	6.51 µM [falling, full curve, poor fit]	
COc1ccc(NC(=S)NNC(=O)c2ccccc2OC(F)F)cc1		6.51 µM [rising, single point]	
COc1ccc(C(=O)Nc2ccc(N3CCCC3)cc2)cc1		0.461 µM [rising, single point]	2.06 µM [rising, partial curve]
CC(=O)NCCC(=O)Nc1cc(S(=O)(=O)N2CCOCC2)ccc1Oc1ccccc1	-4.95%	29.1 µM [rising, single point]	0.58 µM [rising, single point]
CCCc1cc(=O)oc2c3c(cc(OCC(=O)N[C@@H](C)C(=O)O)c12)OC(C)(C)CC3	-0.472%	1.3 µM [falling, full curve]	
O=S(=O)(c1ccc(OCC(O)CN2CCc3ccccc3C2)cc1)N1CCOCC1 (stereo unspecified)	9.75%	16.4 µM [falling, partial curve]	
Cc1ccc2nc3c(cc(C(=O)NCCc4ccccc4)c(=N)n3CCN3CCOCC3)c(=O)n2c1	-17.1%		

Structure (SMILES)	cell number change	AC50 [1]	AC50 [2]
COc1cc(OC)c(OC)cc1CNCc1ccc2c(c1)OCO2	-6.08%		
CCCCNC(=S)N(C)/N=C/c1ccc2c(c1)OCO2	26.3%		
O=C(O)/C(=N/NC(=O)c1ccc(Cl)cc1)c1ccccc1	-20.5%	0.82 µM [falling, partial curve, poor fit]	
O=C(CSc1nncn1-c1ccccc1)N1CCCC1		0.501 µM [falling, full curve]	
C=CCOC(=O)C1=C(C)Nc2nnnn2C1c1cccc(OC)c1OC (stereo unspecified)	-12.3%	0.411 µM [rising, full curve]	
CC1(C)Cc2nc(-c3ccccc3)n3cnnc3c2CO1	-1.21%		
CCOC(=O)NC1(C(F)(F)F)C(=O)NC(C)=C1C#N (stereo unspecified)	-19.7%	29.1 µM [falling, single point]	
COc1cc(/C=N/Nc2cc(C)nc(NS(=O)(=O)c3ccccc3)n2)ccc1O	15.2%	29.1 µM [rising, single point]	
Cc1ccc(C(=O)c2cc(C)sc2NC(=O)CN2CCN(C(=O)c3ccco3)CC2)cc1	-21.7%		
N#Cc1c(SCC(N)=O)nc(-c2ccccc2)c2c1CCCC2	31.3%	29.1 µM [rising, single point]	18.4 µM [rising, single point]
N#C/C(=C\c1ccc(OCCN2CCOCC2)cc1)C(=O)Nc1ccccc1F	-36.4%	4.11 µM [falling, partial curve]	29.1 µM [falling, single point]
COc1ccc(-n2c(COc3ccccc3)n[nH]c2=S)cc1	-10.2%	1.46 µM [falling, full curve, poor fit]	
Cc1ccc(C(=O)O)c(C(=O)Nc2nc3ccccc3s2)c1	-3.05%		
O=C(CSc1ncn[nH]1)NCc1ccc2c(c1)OCO2	-1.49%		
CCOc1ccccc1-c1nc(CN2CCC(C(=O)N3CCOCC3)CC2)c(C)o1	31.7%	5.17 µM [rising, full curve]	29.1 µM [rising, single point]
CC(OC(=O)CNC(=O)c1ccc(Cl)c([N+](=O)[O-])c1)C(=O)NC1CCCCC1C (stereo unspecified)	87.6%		16.4 µM [rising, single point]
COc1ccc(C(=O)N2N=C(c3cccs3)CC2c2ccccc2O)cc1 (stereo unspecified)	23.8%	4.61 µM [rising, single point]	
CC1CCCN(S(=O)(=O)c2ccc3c(c2)CCN3C(=O)C2CCC2)C1 (stereo unspecified)	13.4%		
O=C(CCSc1nnc(-c2ccncc2)o1)Nc1ccccc1Cl	38%	32.6 µM [rising, single point]	29.1 µM [rising, single point]
Cc1ccc(/C=C/S(=O)(=O)NCc2ccc(F)cc2)cc1	-27%	6.51 µM [rising, partial curve, poor fit]	
